PubChem BioAssay AID1259254 | NCATS – 2017

- Assay: 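Finding genes that stop cells copying their DNA twice in one cycle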 (primary screen)
- Cells: human HCT116 colorectal cancer cells
- Reagent: single siRNA against human genes
- Time to read-out: 3 days
- Detection: 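Imaged Hoechst DNA stain sorts each cell into a cycle phase by DNA amount; per plate, G2 fraction set to 0% for non-targeting and 100% for GMNN siRNA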
- Reading the numbers: G2 robust z-score and G2 cells, % of GMNN control: higher = more G2 cells, more excess DNA replication
- Hit rule: 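An siRNA counts as active if its G2 robust z-score lies at least 5 MADs above the screen median; here such calls match roughly 38% of GMNN control or more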
The whole screen tested about 59,000 reagents; below is an unselected part. Of all reagents, about 1,550 (2.6%) were called active. 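G2 share is only a proxy for re-replication; each gene was hit by three separate siRNAs, and active genes were retested.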 Reagents against one gene are numbered here. Further read-outs or replicates are left out here. The record does not give: the amount of reagent.

Gene	reagent no.	G2 robust z-score	G2 cells, % of GMNN control	outcome
EXD2	1	-1.52	-7.74	inactive
EXD2	2	-0.134	2.03	inactive
EXD2	3	-0.749	-2.3	inactive
SLCO4A1	1	-0.186	1.66	inactive
SLCO4A1	2	-0.598	-1.24	inactive
SLCO4A1	3	0.264	4.83	inactive
DISP2	1	0.207	4.42	inactive
DISP2	2	1.62	14.3	inactive
DISP2	3	0.115	3.77	inactive
GOLGA2P5	1	1.04	10.3	inactive
GOLGA2P5	2	-0.256	1.16	inactive
GOLGA2P5	3	-0.968	-3.84	inactive
NME7	1	-0.299	0.862	inactive
NME7	2	1.99	17	inactive
NME7	3	-0.509	-0.611	inactive
ZNF215	1	0.0824	3.55	inactive
ZNF215	2	0.0197	3.11	inactive
ZNF215	3	1.27	11.9	inactive
LOC338963	1	4.28	33.1	inactive
LOC338963	2	0.321	5.23	inactive
LOC338963	3	0.219	4.51	inactive
PMS2P10	1	1.43	13	inactive
PMS2P10	2	6.3	47.3	active
PMS2P10	3	-0.494	-0.511	inactive
PRPS2	1	0.193	4.33	inactive
PRPS2	2	-1.62	-8.44	inactive
PRPS2	3	-0.753	-2.33	inactive
TBR1	1	0.856	8.99	inactive
TBR1	2	0.944	9.61	inactive
TBR1	3	0.144	3.98	inactive
TNK1	1	-0.615	-1.36	inactive
TNK1	2	-0.348	0.517	inactive
TNK1	3	1.51	13.6	inactive
FAM217A	1	0.401	5.79	inactive
FAM217A	2	0.51	6.55	inactive
FAM217A	3	1.67	14.7	inactive
NWD2	1	0.518	6.61	inactive
NWD2	2	-0.164	1.82	inactive
NWD2	3	0.062	3.4	inactive
AMMECR1L	1	-0.616	-1.37	inactive
AMMECR1L	2	0.522	6.64	inactive
AMMECR1L	3	-0.0445	2.65	inactive
WASHC3	1	0.251	4.73	inactive
WASHC3	2	-0.782	-2.53	inactive
WASHC3	3	0.548	6.83	inactive
CEP76	1	-0.671	-1.75	inactive
CEP76	2	-0.223	1.4	inactive
CEP76	3	0.446	6.11	inactive
STXBP4	1	0.545	6.8	inactive
STXBP4	2	5.49	41.6	active
STXBP4	3	-0.636	-1.5	inactive
KCNJ5	1	-0.582	-1.13	inactive
KCNJ5	2	-0.808	-2.72	inactive
KCNJ5	3	1.24	11.7	inactive
SCN9A	1	3.08	24.7	inactive
SCN9A	2	-0.121	2.11	inactive
SCN9A	3	-0.229	1.36	inactive
ZNFX1	1	-0.597	-1.24	inactive
ZNFX1	2	-1.1	-4.78	inactive
ZNFX1	3	-0.732	-2.18	inactive
OR8A1	1	0.209	4.44	inactive
OR8A1	2	-1.15	-5.14	inactive
OR8A1	3	-0.0407	2.68	inactive
SNRPD1	1	0.118	3.8	inactive
SNRPD1	2	2.71	22	inactive
SNRPD1	3	1.61	14.3	inactive
OR4C13	1	1.41	12.9	inactive
OR4C13	2	0.478	6.33	inactive
OR4C13	3	-0.22	1.42	inactive

Laid out differently: 9 of the entries above.
{"Gene":"SLCO4A1","reagent no.":1,"G2 robust z-score":-0.186,"G2 cells, % of GMNN control":1.66,"outcome":"inactive"}
{"Gene":"SLCO4A1","reagent no.":2,"G2 robust z-score":-0.598,"G2 cells, % of GMNN control":-1.24,"outcome":"inactive"}
{"Gene":"SLCO4A1","reagent no.":3,"G2 robust z-score":0.264,"G2 cells, % of GMNN control":4.83,"outcome":"inactive"}
{"Gene":"DISP2","reagent no.":1,"G2 robust z-score":0.207,"G2 cells, % of GMNN control":4.42,"outcome":"inactive"}
{"Gene":"DISP2","reagent no.":2,"G2 robust z-score":1.62,"G2 cells, % of GMNN control":14.3,"outcome":"inactive"}
{"Gene":"DISP2","reagent no.":3,"G2 robust z-score":0.115,"G2 cells, % of GMNN control":3.77,"outcome":"inactive"}
{"Gene":"GOLGA2P5","reagent no.":1,"G2 robust z-score":1.04,"G2 cells, % of GMNN control":10.3,"outcome":"inactive"}
{"Gene":"GOLGA2P5","reagent no.":2,"G2 robust z-score":-0.256,"G2 cells, % of GMNN control":1.16,"outcome":"inactive"}
{"Gene":"GOLGA2P5","reagent no.":3,"G2 robust z-score":-0.968,"G2 cells, % of GMNN control":-3.84,"outcome":"inactive"}
